Data published in US8629240B2, “Peptide ligands for clusterin and uses thereof” (National Research Council of Canada, priority 2009, dated 2014).
At least one peptide structure holds a part that was inferred or is arguable (an end, a ring closure or a residue). Peptide text beside a SMILES is read from it.

Test system: 4T1 tumor
Experiment: In vivo blocking experiment with excess unlabeled peptide
Parameters: species or system mouse
Conditions: 5 μmoles unlabeled peptide with 25 nmoles P3378-DL680, 15 min post-injection
Description: To further validate the specificity of the in vivo targeting ability of the P3378-DL680 probe, a blocking experiment using an excess of unlabeled P3378 peptide was carried out. Mice received 25 nmoles of P3378-DL680 alone (n=1) or in combination with 5 μmoles unlabeled P3378 or P3378R peptide (both n=2) in 100 μL sterile saline. Animals in the control groups received 25 nmoles of P3378-DL680 with or without 5 μmoles of the unlabeled scrambled P3378R peptide, whereas the experimental animals were injected with 25 nmoles of P3378-DL680 in combination with 5 μmoles of unlabeled P3378 peptide. […] Furthermore, using the gated NIRF lifetime and the OptiView 3D reconstruction module we selected in each mouse the slice along the Z-axis that contained the highest concentration of P3378-DL680 and determined its relative concentration.

SMILES: CC(C)C[C@H](NC(=O)[C@H](Cc1ccc(O)cc1)NC(=O)[C@@H]1CCCN1)C(=O)N[C@@H](Cc1c[nH]cn1)C(=O)N[C@@H](CCC(N)=O)C(=O)N[C@@H](CO)C(=O)N1CCC[C@H]1C(=O)N[C@@H](Cc1c[nH]cn1)C(=O)N[C@@H](Cc1c[nH]c2ccccc12)C(=O)N[C@@H](CCCCN)C(=O)N1CCC[C@H]1C(=O)N[C@@H](CO)C(=O)N[C@@H](CO)C(=O)NCC(=O)N[C@@H](CO)C(=O)NCC(=O)N[C@@H](CS)C(=O)O [P3378R, PYLHQSPHWKPSSGSGC, reference compound] (H-PYLHQSPHWKPSSGSGC-OH)
- blocking of uptake of P3378-DL680 into the tumor by unlabeled peptide: did not
